# In the supplement of paper PMC8728848:
# The list shows a part of the results.
# B1: PX14343G-pdi-535-24-535 (Parabacteroides distasonis) (protein)
# chain: LDTVPKDQLAPSTTWQTEADAKGFIVGCYKDLLDGNTLLYLDCGSDIGYNNFPWEGFRPWGDGSLSSSNPGQILYDYKSIRKANTFLENVDKVTFSSDAVKANYVAQAKAIRAYKYFLMNWWYGGVPIISSYSSADEAKVERNTEQEVRDYIAKDLDEALAGIAEAPEARGYIAKGAVLAIKMREALYYGDWQKAKDAAKAIIDLKQYELDPDYTNLFKVSGVDSKEIILADQNIETLDGLGTIGQMYNNVDQGWSSIVPTQNLVDMYEMSDGLTKEESKTYDAKHPFANRDPRMAMTILYPGRDWRGDVLNTLDEKLQDGTVNKNFPTYTDNASKSALTWAKYLDPMDQYGDVWSSGACPIVFRYAEVLLTYAEAANELSGPSDEIYGYLNQIRQRVGMGEVDKAKYGTKDKLRELIRRERTVELAGEGLRRADIVRWQEDGKMLAEKVMNGDLLRVTGTINYGESEPTKRAEITGTAVIETRQFSSRNRYLPIPQTSMDKNPNLKQNPGY
# Tests used:
# Experiment in all cases: glycan array binding signal (z-score within array); higher = stronger binding
# Settings in all cases: glycan notation: IUPAC condensed, linker removed
# Neu5Ac(a2-8)Neu5Ac = target: Neu5Ac(a2-8)Neu5Ac
# Outline: (§1)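 Glycan array binding is given as a within-array Z-score, which can be read as non-binding when negative. The arrays, 3228 of them, came from the Consortium for Functional Glycomics database and were retained only where the protein sequence was available. Z-scores were averaged across arrays of the same protein sequence at different concentrations or buffers and across linkers.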
# [1] = target: Neu5Ac(a2-8)Neu5Ac(a2-3)Gal(b1-3)GalNAc(b1-4)[Neu5Ac(a2-3)]Gal(b1-4)Glc
# Outline: as §1
# [2] = target: Neu5Ac(a2-8)Neu5Ac(a2-3)Gal(b1-3)GalNAc(b1-4)[Neu5Ac(a2-8)Neu5Ac(a2-3)]Gal(b1-4)Glc
# Outline: as §1
# [3] = target: Neu5Ac(a2-8)Neu5Ac(a2-3)Gal(b1-4)Glc
# Outline: as §1
# [4] = target: Neu5Ac(a2-8)Neu5Ac(a2-3)Gal(b1-4)GlcNAc
# Outline: as §1
# [5] = target: Neu5Ac(a2-8)Neu5Ac(a2-3)[Gal(b1-3)GalNAc(b1-4)]Gal(b1-4)Glc
# Outline: as §1
# [6] = target: Neu5Ac(a2-8)Neu5Ac(a2-3)[GalNAc(b1-4)]Gal(b1-4)Glc
# Outline: as §1
# [7] = target: Neu5Ac(a2-8)Neu5Ac(a2-8)Neu5Ac
# Outline: as §1
# [8] = target: Neu5Ac(a2-8)Neu5Ac(a2-8)Neu5Ac(a2-3)Gal(b1-4)Glc
# Outline: as §1
# [9] = target: Neu5Ac(a2-8)Neu5Ac(a2-8)Neu5Ac(a2-3)[Gal(b1-3)GalNAc(b1-4)]Gal(b1-4)Glc
# Outline: as §1
# [10] = target: Neu5Ac(a2-8)Neu5Ac(a2-8)Neu5Ac(a2-3)[GalNAc(b1-4)]Gal(b1-4)Glc
# Outline: as §1
# [11] = target: Neu5Ac(a2-8)Neu5Ac(a2-8)Neu5Ac(a2-8)Neu5Ac(a2-3)[GalNAc(b1-4)]Gal(b1-4)Glc
# Outline: as §1
# [12] = target: Neu5Ac(a2-8)Neu5Gc(a2-3)Gal(b1-4)GlcNAc
# Outline: as §1
# [13] = target: Neu5Ac(b2-6)Gal(b1-4)GlcNAc
# Outline: as §1
# Neu5Ac(b2-6)GalNAc = target: Neu5Ac(b2-6)GalNAc
# Outline: as §1
# [14] = target: Neu5Ac9Ac(a2-3)Gal(b1-3)GlcNAc
# Outline: as §1
# [15] = target: Neu5Ac9Ac(a2-3)Gal(b1-4)GlcNAc
# Outline: as §1
# [16] = target: Neu5Ac9Ac(a2-6)Gal(b1-4)GlcNAc
# Outline: as §1
# [17] = target: Neu5Gc(a2-3)Gal(b1-3)GlcNAc
# Outline: as §1
# [18] = target: Neu5Gc(a2-3)Gal(b1-3)[Fuc(a1-4)]GlcNAc
# Outline: as §1
# Neu5Gc(a2-3)Gal(b1-4)Glc = target: Neu5Gc(a2-3)Gal(b1-4)Glc
# Outline: as §1
# [19] = target: Neu5Gc(a2-3)Gal(b1-4)GlcNAc
# Outline: as §1
# [20] = target: Neu5Gc(a2-3)Gal(b1-4)GlcNAc(b1-3)Gal(b1-4)GlcNAc(b1-2)Man(a1-3)[Neu5Gc(a2-3)Gal(b1-4)GlcNAc(b1-3)Gal(b1-4)GlcNAc(b1-2)Man(a1-6)]Man(b1-4)GlcNAc(b1-4)GlcNAc
# Outline: as §1
# [21] = target: Neu5Gc(a2-3)Gal(b1-4)[Fuc(a1-3)]GlcNAc
# Outline: as §1
# [22] = target: Neu5Gc(a2-6)Gal(b1-4)GlcNAc
# Outline: as §1
# Neu5Gc(a2-6)GalNAc = target: Neu5Gc(a2-6)GalNAc
# Outline: as §1
# [23] = target: Neu5Gc(a2-8)Neu5Ac(a2-3)Gal(b1-4)GlcNAc
# Outline: as §1
# [24] = target: Neu5Gc(a2-8)Neu5Gc(a2-3)Gal(b1-4)GlcNAc
# Outline: as §1
# [25] = target: Neu5Gc(a2-8)Neu5Gc(a2-3)Gal(b1-4)GlcNAc(b1-3)Gal(b1-4)GlcNAc
# Outline: as §1
# [26] = target: Neu5Gc(a2-8)Neu5Gc(a2-6)Gal(b1-4)GlcNAc
# Outline: as §1
# [27] = target: Neu5Gc(b2-6)Gal(b1-4)GlcNAc
# Outline: as §1
binder,measurement,setting,value
B1,glycan array binding signal (z-score),Neu5Ac(a2-8)Neu5Ac,0.537
same,glycan array binding signal (z-score),[1],-0.712
same,glycan array binding signal (z-score),[2],0.598
same,glycan array binding signal (z-score),[3],-0.191
same,glycan array binding signal (z-score),[4],-0.855
same,glycan array binding signal (z-score),[5],-0.889
same,glycan array binding signal (z-score),[6],-0.521
same,glycan array binding signal (z-score),[7],-0.443
same,glycan array binding signal (z-score),[8],-0.447
same,glycan array binding signal (z-score),[9],0.2
same,glycan array binding signal (z-score),[10],-1.06
same,glycan array binding signal (z-score),[11],-0.61
same,glycan array binding signal (z-score),[12],16.3
same,glycan array binding signal (z-score),[13],0.883
same,glycan array binding signal (z-score),Neu5Ac(b2-6)GalNAc,-0.479
same,glycan array binding signal (z-score),[14],0.039
same,glycan array binding signal (z-score),[15],-0.968
same,glycan array binding signal (z-score),[16],0.187
same,glycan array binding signal (z-score),[17],0.395
same,glycan array binding signal (z-score),[18],0.295
same,glycan array binding signal (z-score),Neu5Gc(a2-3)Gal(b1-4)Glc,-0.053
same,glycan array binding signal (z-score),[19],-0.132
same,glycan array binding signal (z-score),[20],-0.198
same,glycan array binding signal (z-score),[21],-0.269
same,glycan array binding signal (z-score),[22],-0.687
same,glycan array binding signal (z-score),Neu5Gc(a2-6)GalNAc,0.744
same,glycan array binding signal (z-score),[23],0.119
same,glycan array binding signal (z-score),[24],-0.699
same,glycan array binding signal (z-score),[25],-0.772
same,glycan array binding signal (z-score),[26],0.864
same,glycan array binding signal (z-score),[27],0.374

# Quoted at random: two entries already listed, in no set order.
binder,measurement,setting,value
B1,glycan array binding signal (z-score),[17],0.395
same,glycan array binding signal (z-score),[2],0.598
